Laboratory results: PubChem BioAssay AID1159578 (Peter MacCallum Cancer Centre, 2015)

- Purpose: 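Knock-downs that alter how fast lymphatic endothelial cells migrate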 (primary screen)
- Cells: human lymphatic endothelial cells
- Reagents: siRNA pool against human genes, 40 nM
- Timing: 48 h after transfection
- Measurement: 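High-content imaging of dye-stained cells in a scratch assay measures filled wound area and nuclei per well; duplicate means given as ratio to mock and robust z-score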
- Scale: migration robust z-score: higher = faster migration into the scratch; migration relative to mock: higher = more scratch area covered than mock; nuclei per well: higher = more cells in the well
- Active means: 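Migration changed when robust z exceeds 2 or falls below -2 and mean nuclei number is at least 3300; otherwise not called changed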
- Meaning of the calls: active = migration changed; inactive = no migration change, or too few cells
This is one part, drawn at random, of about 18,000 deposited reagents. About 1,030 of them (5.7%) were called active. 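Inactive calls also include pools with fewer than 3300 nuclei, whose migration was not assessed.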 Raw values are not corrected between plates. No sequences are given here.

| target | migration robust z-score | migration class with cell-count check | migration relative to mock | nuclei per well, duplicate mean | Outcome |
| --- | --- | --- | --- | --- | --- |
| RPUSD1 (GeneID 113000) | -0.02 | migration z between -2 and 2; enough cells | 0.8 | 6214 | inactive |
| EPB41L3 (GeneID 23136) | 2.25 | migration z above 2; enough cells | 1.47 | 7622 | active |
| RAB6A (GeneID 5870) | 0.6 | migration z between -2 and 2; enough cells | 0.92 | 5234 | inactive |
| ZNF780B (GeneID 163131) | 0.16 | migration z between -2 and 2; enough cells | 0.92 | 6097 | inactive |
| ASPH (GeneID 444) | 0.36 | migration z between -2 and 2; enough cells | 0.88 | 3913 | inactive |
| MS4A6A (GeneID 64231) | -0.64 | migration z between -2 and 2; enough cells | 0.72 | 6246 | inactive |
| SRPX2 (GeneID 27286) | -1.19 | migration z between -2 and 2; enough cells | 0.58 | 6837 | inactive |
| ENPP3 (GeneID 5169) | -1.09 | migration z between -2 and 2; enough cells | 0.6 | 6203 | inactive |
| ZFC3H1 (GeneID 196441) | -0.69 | migration z between -2 and 2; enough cells | 0.7 | 5230 | inactive |
| TMEM139 (GeneID 135932) | 1.8 | migration z between -2 and 2; enough cells | 1.36 | 6194 | inactive |
| GDF6 (GeneID 392255) | 3.09 | migration z above 2; enough cells | 1.69 | 7057 | active |
| ITGAM (GeneID 3684) | 1.91 | migration z between -2 and 2; enough cells | 1.38 | 6873 | inactive |
| SLC8A3 (GeneID 6547) | 0.47 | migration z between -2 and 2; enough cells | 0.9 | 6076 | inactive |
| GDE1 (GeneID 51573) | 1.64 | migration z between -2 and 2; enough cells | 1.12 | 5308 | inactive |
| UNC119B (GeneID 84747) | 0.14 | migration z between -2 and 2; enough cells | 0.92 | 5848 | inactive |
| HYAL1 (GeneID 3373) | -1.92 | migration z between -2 and 2; enough cells | 0.44 | 4462 | inactive |
| BTN3A3 (GeneID 10384) | -0.3 | migration z between -2 and 2; enough cells | 0.82 | 6092 | inactive |
| ANAPC1 (GeneID 64682) | 0.26 | migration z between -2 and 2; enough cells | 0.96 | 7401 | inactive |
| HTRA2 (GeneID 27429) | 1.94 | migration z between -2 and 2; enough cells | 1.18 | 5830 | inactive |
| IRS1 (GeneID 3667) | -0.48 | migration z between -2 and 2; enough cells | 0.76 | 3864 | inactive |
| PRAG1 (GeneID 157285) | -3.04 | under 3300 nuclei; migration not judged | 0.22 | 3250 | inactive |
| CCDC142 (GeneID 84865) | 0.28 | migration z between -2 and 2; enough cells | 0.96 | 5539 | inactive |
| BMX (GeneID 660) | 0.26 | migration z between -2 and 2; enough cells | 0.86 | 6356 | inactive |
| MANBAL (GeneID 63905) | 0.64 | migration z between -2 and 2; enough cells | 1.06 | 5085 | inactive |
| HNRNPH1 (GeneID 3187) | -0.73 | migration z between -2 and 2; enough cells | 0.7 | 5644 | inactive |
| PATE2 (GeneID 399967) | -0.16 | migration z between -2 and 2; enough cells | 0.84 | 6520 | inactive |
| SPCS2 (GeneID 9789) | 1.46 | migration z between -2 and 2; enough cells | 1.27 | 5955 | inactive |
| MAPK6 (GeneID 5597) | -1.5 | migration z between -2 and 2; enough cells | 0.52 | 3826 | inactive |
| ATP2B2 (GeneID 491) | -1.14 | migration z between -2 and 2; enough cells | 0.58 | 5188 | inactive |
| TMEM43 (GeneID 79188) | 2.22 | migration z above 2; enough cells | 1.46 | 5996 | active |
| DNAAF8 (GeneID 146562) | 1.14 | migration z between -2 and 2; enough cells | 1.18 | 5772 | inactive |
| LINC00174 (GeneID 285908) | -0.2 | migration z between -2 and 2; enough cells | 0.83 | 5184 | inactive |
| HCRTR2 (GeneID 3062) | 1.5 | migration z between -2 and 2; enough cells | 1.09 | 6759 | inactive |
| RAMAC (GeneID 83640) | 0.38 | migration z between -2 and 2; enough cells | 0.98 | 6859 | inactive |
| SETD7 (GeneID 80854) | 1.56 | migration z between -2 and 2; enough cells | 1.1 | 5896 | inactive |
| CCDC85A (GeneID 114800) | -0.12 | migration z between -2 and 2; enough cells | 0.86 | 5924 | inactive |
| ARL6IP1 (GeneID 23204) | -2.67 | migration z below -2; enough cells | 0.19 | 5854 | active |

Entries listed so far with an active call (4):
| target | migration robust z-score | migration class with cell-count check | migration relative to mock | nuclei per well, duplicate mean | Outcome |
| --- | --- | --- | --- | --- | --- |
| EPB41L3 (GeneID 23136) | 2.25 | migration z above 2; enough cells | 1.47 | 7622 | active |
| GDF6 (GeneID 392255) | 3.09 | migration z above 2; enough cells | 1.69 | 7057 | active |
| TMEM43 (GeneID 79188) | 2.22 | migration z above 2; enough cells | 1.46 | 5996 | active |
| ARL6IP1 (GeneID 23204) | -2.67 | migration z below -2; enough cells | 0.19 | 5854 | active |

Additional results:
| target | migration robust z-score | migration class with cell-count check | migration relative to mock | nuclei per well, duplicate mean | Outcome |
| --- | --- | --- | --- | --- | --- |
| THAP12 (GeneID 5612) | 0.94 | migration z between -2 and 2; enough cells | 0.99 | 4876 | inactive |
| COL27A1 (GeneID 85301) | -0.05 | migration z between -2 and 2; enough cells | 0.88 | 6522 | inactive |
| NECTIN1 (GeneID 5818) | 0.66 | migration z between -2 and 2; enough cells | 1.05 | 4927 | inactive |
| ALS2CL (GeneID 259173) | -1.29 | migration z between -2 and 2; enough cells | 0.55 | 5471 | inactive |
| MTMR6 (GeneID 9107) | 0.24 | migration z between -2 and 2; enough cells | 0.85 | 4476 | inactive |
| NUDT14 (GeneID 256281) | 1.6 | migration z between -2 and 2; enough cells | 1.12 | 6002 | inactive |
| MGST3 (GeneID 4259) | 0.18 | migration z between -2 and 2; enough cells | 0.93 | 6838 | inactive |
| PHF21A (GeneID 51317) | -0.1 | migration z between -2 and 2; enough cells | 0.78 | 5588 | inactive |
| TACR3 (GeneID 6870) | 1.14 | migration z between -2 and 2; enough cells | 1.02 | 7357 | inactive |
| SH3PXD2A (GeneID 9644) | 1.2 | migration z between -2 and 2; enough cells | 1.2 | 6309 | inactive |
| FGF17 (GeneID 8822) | -0.16 | migration z between -2 and 2; enough cells | 0.78 | 5802 | inactive |
| KMT2C (GeneID 58508) | -1.03 | migration z between -2 and 2; enough cells | 0.6 | 5602 | inactive |
| PRPF40B (GeneID 25766) | -1.16 | migration z between -2 and 2; enough cells | 0.58 | 4351 | inactive |
| BTG3 (GeneID 10950) | -0.69 | migration z between -2 and 2; enough cells | 0.7 | 5466 | inactive |
| TNFRSF6B (GeneID 8771) | 1.01 | migration z between -2 and 2; enough cells | 1.15 | 5594 | inactive |
| INPP5A (GeneID 3632) | -0.78 | migration z between -2 and 2; enough cells | 0.66 | 5370 | inactive |
| EGLN1 (GeneID 54583) | -0.18 | migration z between -2 and 2; enough cells | 0.77 | 6273 | inactive |
| OCM2 (GeneID 4951) | -0.27 | migration z between -2 and 2; enough cells | 0.82 | 4853 | inactive |
| HSD17B7 (GeneID 51478) | 1.3 | migration z between -2 and 2; enough cells | 1.06 | 6556 | inactive |
| HRH1 (GeneID 3269) | -0.72 | migration z between -2 and 2; enough cells | 0.66 | 7350 | inactive |
